# Some of the results follow.
# Chains of the proteins cited; added tags and fusions are not shown. Lines headed by an entry give the natural chain unless they say otherwise; changes in a name come on top.
# UniProt Q15645: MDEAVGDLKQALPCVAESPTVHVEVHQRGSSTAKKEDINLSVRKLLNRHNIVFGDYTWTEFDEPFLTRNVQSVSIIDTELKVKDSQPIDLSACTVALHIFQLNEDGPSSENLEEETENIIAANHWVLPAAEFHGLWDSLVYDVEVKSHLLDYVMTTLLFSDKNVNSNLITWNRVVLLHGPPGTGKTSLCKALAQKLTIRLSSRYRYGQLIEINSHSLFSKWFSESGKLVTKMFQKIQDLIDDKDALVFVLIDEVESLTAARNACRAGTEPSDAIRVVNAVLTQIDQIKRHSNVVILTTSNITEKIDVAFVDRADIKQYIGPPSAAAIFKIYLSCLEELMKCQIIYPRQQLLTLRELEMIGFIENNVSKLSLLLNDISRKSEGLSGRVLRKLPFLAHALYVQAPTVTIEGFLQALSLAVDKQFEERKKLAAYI
# UniProt O43715: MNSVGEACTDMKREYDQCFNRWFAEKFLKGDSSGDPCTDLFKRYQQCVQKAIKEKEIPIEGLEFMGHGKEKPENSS
# UniProt Q9UPN9: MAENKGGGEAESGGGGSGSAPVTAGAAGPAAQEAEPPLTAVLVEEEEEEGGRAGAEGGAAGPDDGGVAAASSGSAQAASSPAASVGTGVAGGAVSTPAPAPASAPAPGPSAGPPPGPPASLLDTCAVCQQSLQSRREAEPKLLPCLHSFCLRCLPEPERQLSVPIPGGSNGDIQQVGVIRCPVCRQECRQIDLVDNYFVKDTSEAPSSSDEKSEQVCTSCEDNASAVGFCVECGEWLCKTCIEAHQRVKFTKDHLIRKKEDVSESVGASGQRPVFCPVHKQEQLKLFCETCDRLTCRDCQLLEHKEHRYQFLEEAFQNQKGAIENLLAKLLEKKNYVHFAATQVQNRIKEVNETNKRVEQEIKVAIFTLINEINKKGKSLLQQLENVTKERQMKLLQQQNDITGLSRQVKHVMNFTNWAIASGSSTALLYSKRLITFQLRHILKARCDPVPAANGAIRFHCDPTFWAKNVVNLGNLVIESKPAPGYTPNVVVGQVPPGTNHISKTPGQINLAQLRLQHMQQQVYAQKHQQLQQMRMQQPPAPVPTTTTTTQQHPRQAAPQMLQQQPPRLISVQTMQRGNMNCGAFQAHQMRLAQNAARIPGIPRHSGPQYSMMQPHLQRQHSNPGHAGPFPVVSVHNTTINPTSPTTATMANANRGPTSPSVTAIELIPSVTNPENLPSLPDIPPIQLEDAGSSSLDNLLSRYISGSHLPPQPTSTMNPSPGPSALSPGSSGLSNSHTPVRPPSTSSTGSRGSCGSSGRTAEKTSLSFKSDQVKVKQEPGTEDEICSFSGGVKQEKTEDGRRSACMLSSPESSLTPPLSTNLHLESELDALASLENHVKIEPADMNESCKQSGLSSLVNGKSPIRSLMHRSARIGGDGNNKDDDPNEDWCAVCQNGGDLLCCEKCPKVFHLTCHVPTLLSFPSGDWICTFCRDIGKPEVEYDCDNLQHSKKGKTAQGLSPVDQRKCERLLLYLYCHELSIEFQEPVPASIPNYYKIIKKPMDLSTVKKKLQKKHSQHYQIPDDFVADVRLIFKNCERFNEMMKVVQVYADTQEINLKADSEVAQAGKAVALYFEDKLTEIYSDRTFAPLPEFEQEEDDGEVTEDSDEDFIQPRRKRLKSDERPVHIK
# UniProt Q96F44: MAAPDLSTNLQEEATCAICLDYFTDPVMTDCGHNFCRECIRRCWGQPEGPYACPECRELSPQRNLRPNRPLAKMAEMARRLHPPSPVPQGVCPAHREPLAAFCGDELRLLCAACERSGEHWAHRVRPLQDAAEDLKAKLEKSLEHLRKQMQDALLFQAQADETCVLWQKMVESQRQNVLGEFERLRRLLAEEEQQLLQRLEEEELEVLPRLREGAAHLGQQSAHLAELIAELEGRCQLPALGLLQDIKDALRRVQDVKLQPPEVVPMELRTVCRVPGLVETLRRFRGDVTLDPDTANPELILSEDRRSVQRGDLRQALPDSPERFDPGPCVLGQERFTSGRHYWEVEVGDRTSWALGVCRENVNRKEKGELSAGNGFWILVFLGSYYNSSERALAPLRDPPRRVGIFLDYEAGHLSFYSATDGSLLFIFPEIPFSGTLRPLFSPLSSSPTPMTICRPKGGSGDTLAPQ
# UniProt Q6Q0C0: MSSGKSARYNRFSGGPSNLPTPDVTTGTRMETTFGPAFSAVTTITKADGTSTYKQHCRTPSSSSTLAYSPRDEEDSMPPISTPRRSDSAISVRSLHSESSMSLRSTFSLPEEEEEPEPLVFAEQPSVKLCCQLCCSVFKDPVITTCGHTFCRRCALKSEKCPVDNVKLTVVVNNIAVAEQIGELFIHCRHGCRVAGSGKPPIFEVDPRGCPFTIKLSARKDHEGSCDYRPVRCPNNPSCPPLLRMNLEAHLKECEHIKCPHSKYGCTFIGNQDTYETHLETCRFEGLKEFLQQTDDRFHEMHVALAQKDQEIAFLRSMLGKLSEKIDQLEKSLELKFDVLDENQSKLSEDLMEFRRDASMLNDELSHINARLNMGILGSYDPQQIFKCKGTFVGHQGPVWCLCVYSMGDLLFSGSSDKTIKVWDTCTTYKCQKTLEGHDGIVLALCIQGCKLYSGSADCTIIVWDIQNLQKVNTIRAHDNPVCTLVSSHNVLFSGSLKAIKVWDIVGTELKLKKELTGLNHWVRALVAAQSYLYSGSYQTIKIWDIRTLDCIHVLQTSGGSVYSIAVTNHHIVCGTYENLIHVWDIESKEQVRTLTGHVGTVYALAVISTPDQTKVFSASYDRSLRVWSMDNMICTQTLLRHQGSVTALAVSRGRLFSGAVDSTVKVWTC
# UniProt Q15654: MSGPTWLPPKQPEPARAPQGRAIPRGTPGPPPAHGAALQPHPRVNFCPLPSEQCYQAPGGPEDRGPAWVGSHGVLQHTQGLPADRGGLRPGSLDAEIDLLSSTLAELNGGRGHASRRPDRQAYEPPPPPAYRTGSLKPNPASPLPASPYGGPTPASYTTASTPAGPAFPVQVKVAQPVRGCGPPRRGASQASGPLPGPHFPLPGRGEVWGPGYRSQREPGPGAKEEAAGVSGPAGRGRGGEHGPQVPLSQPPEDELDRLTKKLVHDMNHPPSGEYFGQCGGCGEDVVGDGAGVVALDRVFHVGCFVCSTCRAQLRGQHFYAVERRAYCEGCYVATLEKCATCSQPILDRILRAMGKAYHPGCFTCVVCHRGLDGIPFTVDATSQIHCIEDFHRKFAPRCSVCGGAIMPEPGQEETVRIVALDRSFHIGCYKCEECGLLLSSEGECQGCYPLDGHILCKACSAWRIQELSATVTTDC
# UniProt Q9C035: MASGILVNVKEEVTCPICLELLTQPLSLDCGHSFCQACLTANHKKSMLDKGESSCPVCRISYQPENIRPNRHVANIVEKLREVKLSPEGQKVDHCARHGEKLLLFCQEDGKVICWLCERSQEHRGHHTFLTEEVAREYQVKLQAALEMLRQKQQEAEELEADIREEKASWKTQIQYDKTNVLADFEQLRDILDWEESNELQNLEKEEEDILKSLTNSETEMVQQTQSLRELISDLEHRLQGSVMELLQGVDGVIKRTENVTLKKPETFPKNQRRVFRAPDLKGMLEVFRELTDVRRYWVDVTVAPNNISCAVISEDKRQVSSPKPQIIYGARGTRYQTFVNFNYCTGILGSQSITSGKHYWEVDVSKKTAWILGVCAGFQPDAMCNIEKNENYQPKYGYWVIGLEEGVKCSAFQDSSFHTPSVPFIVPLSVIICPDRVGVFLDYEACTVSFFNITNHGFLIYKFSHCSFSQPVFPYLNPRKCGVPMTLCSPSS
# UniProt O14545: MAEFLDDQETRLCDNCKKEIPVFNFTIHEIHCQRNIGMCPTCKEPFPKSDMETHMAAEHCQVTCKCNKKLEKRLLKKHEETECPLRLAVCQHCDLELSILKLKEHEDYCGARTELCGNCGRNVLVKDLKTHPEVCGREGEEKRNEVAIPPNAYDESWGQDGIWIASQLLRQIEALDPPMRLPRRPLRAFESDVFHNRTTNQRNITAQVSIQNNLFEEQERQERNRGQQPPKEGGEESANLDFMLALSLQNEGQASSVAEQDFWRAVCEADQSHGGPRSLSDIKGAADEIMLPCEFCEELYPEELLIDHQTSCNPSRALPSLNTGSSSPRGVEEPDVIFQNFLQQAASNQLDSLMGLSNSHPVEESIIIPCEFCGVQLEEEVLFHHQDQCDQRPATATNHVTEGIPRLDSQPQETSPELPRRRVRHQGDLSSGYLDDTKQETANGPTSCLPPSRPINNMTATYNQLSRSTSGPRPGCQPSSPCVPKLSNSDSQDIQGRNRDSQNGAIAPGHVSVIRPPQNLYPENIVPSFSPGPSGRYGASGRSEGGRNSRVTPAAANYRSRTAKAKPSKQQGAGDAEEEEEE
# UniProt P62995: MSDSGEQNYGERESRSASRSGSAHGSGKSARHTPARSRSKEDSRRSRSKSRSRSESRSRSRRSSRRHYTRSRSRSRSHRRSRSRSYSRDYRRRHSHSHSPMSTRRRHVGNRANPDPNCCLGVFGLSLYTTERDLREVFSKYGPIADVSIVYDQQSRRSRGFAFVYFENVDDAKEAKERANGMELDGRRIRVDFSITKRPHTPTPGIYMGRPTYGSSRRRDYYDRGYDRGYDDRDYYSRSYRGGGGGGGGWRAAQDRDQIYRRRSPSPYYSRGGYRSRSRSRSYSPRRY
# UniProt Q4KMQ1: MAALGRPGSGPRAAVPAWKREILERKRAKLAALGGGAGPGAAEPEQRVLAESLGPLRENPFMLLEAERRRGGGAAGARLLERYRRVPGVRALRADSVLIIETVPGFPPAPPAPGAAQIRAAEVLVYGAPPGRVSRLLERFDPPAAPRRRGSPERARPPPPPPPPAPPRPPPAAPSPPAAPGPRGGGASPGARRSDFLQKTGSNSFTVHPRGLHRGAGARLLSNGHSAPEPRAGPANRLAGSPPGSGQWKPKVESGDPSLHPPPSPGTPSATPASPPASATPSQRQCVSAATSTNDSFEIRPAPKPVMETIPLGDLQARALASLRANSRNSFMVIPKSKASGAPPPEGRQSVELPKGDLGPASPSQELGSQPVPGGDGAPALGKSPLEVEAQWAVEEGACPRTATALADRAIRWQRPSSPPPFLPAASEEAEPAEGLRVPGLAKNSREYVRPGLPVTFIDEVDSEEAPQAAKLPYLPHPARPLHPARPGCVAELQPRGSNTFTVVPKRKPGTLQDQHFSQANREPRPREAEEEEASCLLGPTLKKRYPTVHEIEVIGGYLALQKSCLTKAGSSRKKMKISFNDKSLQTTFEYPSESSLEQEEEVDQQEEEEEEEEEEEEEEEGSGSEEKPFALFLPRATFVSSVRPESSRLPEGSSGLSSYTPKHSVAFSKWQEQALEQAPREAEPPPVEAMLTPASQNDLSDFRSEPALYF
# UniProt Q9NUP7: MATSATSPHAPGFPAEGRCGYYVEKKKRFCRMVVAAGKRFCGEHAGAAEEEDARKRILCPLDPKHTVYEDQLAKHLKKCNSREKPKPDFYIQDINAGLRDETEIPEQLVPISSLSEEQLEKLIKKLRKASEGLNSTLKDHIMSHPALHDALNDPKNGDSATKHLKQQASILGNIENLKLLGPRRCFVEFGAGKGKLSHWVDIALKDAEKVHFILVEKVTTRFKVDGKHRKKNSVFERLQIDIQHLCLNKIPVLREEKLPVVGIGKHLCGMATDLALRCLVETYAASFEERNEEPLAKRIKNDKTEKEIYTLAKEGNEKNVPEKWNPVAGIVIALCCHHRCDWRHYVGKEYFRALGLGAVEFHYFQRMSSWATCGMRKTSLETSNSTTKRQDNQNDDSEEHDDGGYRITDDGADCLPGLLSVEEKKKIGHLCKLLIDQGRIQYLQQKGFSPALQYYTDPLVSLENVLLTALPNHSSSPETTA
# UniProt Q9NQ86: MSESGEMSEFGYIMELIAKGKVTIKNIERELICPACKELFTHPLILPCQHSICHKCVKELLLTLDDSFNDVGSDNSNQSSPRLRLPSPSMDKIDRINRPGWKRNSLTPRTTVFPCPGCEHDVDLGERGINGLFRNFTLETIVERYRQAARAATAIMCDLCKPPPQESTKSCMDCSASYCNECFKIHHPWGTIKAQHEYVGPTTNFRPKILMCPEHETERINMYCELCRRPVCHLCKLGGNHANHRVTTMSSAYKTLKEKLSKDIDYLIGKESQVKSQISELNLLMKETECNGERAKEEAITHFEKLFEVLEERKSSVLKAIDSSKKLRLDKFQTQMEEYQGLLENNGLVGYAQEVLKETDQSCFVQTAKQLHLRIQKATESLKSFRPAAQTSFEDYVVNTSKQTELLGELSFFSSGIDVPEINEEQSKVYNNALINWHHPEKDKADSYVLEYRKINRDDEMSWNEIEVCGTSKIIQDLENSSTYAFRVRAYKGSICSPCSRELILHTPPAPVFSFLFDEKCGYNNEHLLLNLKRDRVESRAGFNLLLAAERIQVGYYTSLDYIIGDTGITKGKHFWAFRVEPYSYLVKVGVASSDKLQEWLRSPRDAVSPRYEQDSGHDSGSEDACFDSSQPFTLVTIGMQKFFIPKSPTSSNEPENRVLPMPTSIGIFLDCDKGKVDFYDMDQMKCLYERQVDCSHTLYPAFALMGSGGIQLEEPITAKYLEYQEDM
# Compound: Cc1cc(ccc1-c1ccccc1)C(=O)N1CCCN(CC1)C(=O)CCl [compound 10]
# Experiment: probe-labelled cysteine peptide fold change vs DMSO (competition) (log2 fold change); higher = less target engagement (more negative = stronger competition)
# Conditions: THP-1, incubation time: 4 h
# 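Also: competitive profiling in live THP-1 cells: cysteine peptides tagged with an iodoacetamide desthiobiotin (IA-DTB) probe, intensity after compound treatment relative to DMSO-treated cells.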
Target,probe-labelled cysteine peptide fold change (10 µM),probe-labelled cysteine peptide fold change (50 µM)
TRIP13_Q15645_14_QALPCVAESPTVHVEVHQR (UniProt Q15645),-0.252,-0.19
TRIAP1_O43715_37_GDSSGDPCTDLFK (UniProt O43715),-0.518,0.192
TPRKB_Q9Y3C4_13_MQLTHQLDLFPECR (UniProt Q9Y3C4),-0.0844,0.037
TRIM33_Q9UPN9_153_CLPEPER (UniProt Q9UPN9),-0.069,-0.24
TRIM11_Q96F44_330_FDPGPCVLGQER (UniProt Q96F44),-0.365,-0.206
TRMT1_Q9NXH9_620+621_GDQCCYSHSPPTPR (UniProt Q9NXH9),-0.276,-0.722
TRIM25_Q14258_107+110_ASAPSPNAQVACDHCLK (UniProt Q14258),-0.0215,-0.473
TRAF7_Q6Q0C0_226_DHEGSCDYRPVR (UniProt Q6Q0C0),-0.0112,-0.171
TRIM56_Q9BRZ2_21_VSHGSSPSLLEALSSDFLACK (UniProt Q9BRZ2),0.423,-0.66
TRIP6_Q15654_476_IQELSATVTTDC (UniProt Q15654),-0.194,0.0577
TRANK1_O15050_739_KDDKPTLGAGAPDCSEVGEGHAQVGLGALQLVPDDNR (UniProt O15050),-0.124,0.0626
TRAPPC13_A5PLN9_32_LTKPTLFTNIPVTCEEK (UniProt A5PLN9),-0.265,-0.143
TPX2_Q9ULW0_364_ICRDPQTPVLQTK (UniProt Q9ULW0),0.0934,0.254
TRIM5_Q9C035_95_VDHCAR (UniProt Q9C035),-0.107,-0.113
TRAFD1_O14545_267_AVCEADQSHGGPR (UniProt O14545),-0.116,-0.0923
TRIT1_Q9H3H1_225_FSNPCILWLHADQAVLDER (UniProt Q9H3H1),-0.14,-0.236
TRA2B_P62995_118+119_ANPDPNCCLGVFGLSLYTTER (UniProt P62995),-0.198,-0.0884
TRIOBP_Q9H2D6_2280_SSCELEVLLR (UniProt Q9H2D6),-0.23,0.0743
TRIM25_Q14258_524_NNFCGVGICYGSMNR (UniProt Q14258),-0.287,-0.323
TRIM25_Q14258_168+174_EFFCPEHSECICHICLVEHK (UniProt Q14258),0.141,-0.0787
TRIP6_Q15654_362+365+368_AYHPGCFTCVVCHR (UniProt Q15654),-0.0574,-0.156
TRIM25_Q14258_122_TCLVCMASFCQEHLQPHFDSPAFQDHPLQPPVR (UniProt Q14258),-0.131,-0.275
TPRN_Q4KMQ1_536_EAEEEEASCLLGPTLK (UniProt Q4KMQ1),-0.022,-0.0585
TRAPPC11_Q7Z392_771_VPNISVHLLHEPPALTNEMYCLVVTVQSHEK (UniProt Q7Z392),0.225,0.0741
TPP1_O14773_122_CHSVITQDFLTCWLSIR (UniProt O14773),-0.303,0.336
TPP2_P29144_342_ICEVINEAVWK (UniProt P29144),0.122,0.141

Target,probe-labelled cysteine peptide fold change (10 µM),probe-labelled cysteine peptide fold change (50 µM)
TRAF2_Q12933_49_RPFQAQCGHR (UniProt Q12933),0.0207,-0.0565
TRAPPC12_Q8WVT3_663_NAVANNNAAVCLLYLGK (UniProt Q8WVT3),0.14,0.307
TRAFD1_O14545_135_THPEVCGR (UniProt O14545),-0.0334,-0.0502
TRIM21_P19474_54_GGGSVCPVCR (UniProt P19474),0.0541,-0.278
TRMT13_Q9NUP7_414_ITDDGADCLPGLLSVEEK (UniProt Q9NUP7),-0.296,0.118
TRIM28_Q13263_651+666_VCQKPGDLVMCNQCEFCFHLDCHLPALQDVPGEEWSCSLCHVLPDLK (UniProt Q13263),0.0941,0.167
TRIP6_Q15654_387_GLDGIPFTVDATSQIHCIEDFHRK (UniProt Q15654),0.0396,-0.0263
TRIM25_Q14258_70_NTVLCNVVEQFLQADLAR (UniProt Q14258),-0.125,-0.0132
TRIM25_Q14258_475_VALSECYTVASVAEMPQNYRPHPQR (UniProt Q14258),-0.698,-0.374
TRMT112_Q9UI30_100_TMHHLLLEVEVIEGTLQCPESGR (UniProt Q9UI30),-0.122,-0.125
TRIM38_O00635_188_NLQCFLHEEEK (UniProt O00635),-0.223,-0.256
TRAPPC11_Q7Z392_302_KHIDLCK (UniProt Q7Z392),-0.0237,-0.11
TRAPPC9_Q96Q05_317_NCLSPEDIIDK (UniProt Q96Q05),0.12,0.213
TRIM11_Q96F44_236_CQLPALGLLQDIK (UniProt Q96F44),0.0308,0.288
TRABD_Q9H4I3_108_EVQPDVVVVELCQYR (UniProt Q9H4I3),0.183,0.0345
TRIM32_Q13049_134_EADHQPPGHCTLPVK (UniProt Q13049),-0.119,-0.211
TRIM33_Q9UPN9_447_CDPVPAANGAIR (UniProt Q9UPN9),-0.0626,-0.323
TRIM33_Q9UPN9_582_GNMNCGAFQAHQMR (UniProt Q9UPN9),-0.217,-0.598
TRIM14_Q14142_42_CVCALCPVLGAHR (UniProt Q14142),0.0157,0.0727
TRIM25_Q14258_176_EFFCPEHSECICHICLVEHK (UniProt Q14258),0.158,0.0977
TRIM36_Q9NQ86_521_CGYNNEHLLLNLKR (UniProt Q9NQ86),-0.144,-0.402
TRIM33_Q9UPN9_150_LLPCLHSFCLR (UniProt Q9UPN9),-0.137,-0.537
TRIM36_Q9NQ86_160_AATAIMCDLCKPPPQESTK (UniProt Q9NQ86),-0.431,-0.979
TRMT2A_Q8IZ69_392_CIHEDLLGLTFR (UniProt Q8IZ69),0.00498,-0.18
TPRKB_Q9Y3C4_167_LSSQEESIGTLLDAIICR (UniProt Q9Y3C4),0.0132,-0.163

# Reference: the supplement of paper PMC12067093, “Discovery and optimisation of a covalent ligand for TRIM25 and its application to targeted protein ubiquitination” (Chemical Science, 2025)
